This note sets out measurements from patent US20240115726A1, “HYDRAZONE-BASED SAPONIN DERIVATIVES” (priority 2020, published 2024).

Data set [1] relates to A431 cells. As to the kind of experiment: Toxicity of saponin alone, cell viability (MTS). It is filed as cell-based.
Data set [2] deals with HeLa cells. As to the kind of experiment: Toxicity of saponin alone, cell viability (MTS). In kind it is cell-based. Here is the method: Next, toxicity was determined. […] SO1861-EMCH (blocked): the maleimide functional group is conjugated with mercapto-ethanol.

Turning to `CC(=O)OC1C(C)OC(OC2C(C)OC(OC(=O)[C@]34CCC(C)(C)CC3C3=CCC5[C@@]6(C)CC[C@H](OC7OC(C(=O)O)C(O)C(OC8OCC(O)C(O)C8O)C7OC7OC(CO)C(O)C(O)C7O)CC6[C@@](C)(/C=N/NC(=O)CCOCCOCCOCCOCCN6N=NC7c8ccccc8CN(C(=O)CCC(=O)ON8C(=O)CCC8=O)c8ccccc8C76)C[C@@]5(C)[C@]3(C)C[C@H]4O)C(OC3OC(C)C(OC4OCC(O)C(OC5OC(CO)C(O)C(O)C5O)C4O)C(O)C3O)C2O)C(O)C1OC1OCC(O)C(O)C1O` (some centres unmarked), the “Ratio: IC50 toxicity/IC50 activity” value in data set [1] is given as over 10; in data set [2] it was over 25.
